According to the supplement of paper PMC8256030:
Where a name gives a salt, the structure may show the parent alone. ± gives the standard deviation of the averaged measurements. Some of the results follow. This data set is noisy: repeats of one test often differ as much as different tests do.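 HEK293T cells were given each compound shortly before transfection with a reporter in which red mCherry is followed by the SARS-CoV-2 frameshift element and then GFP in the −1 frame, so GFP appears only after frameshifting.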

test system: SARS-CoV-2 -1 PRF reporter mCherry-FSE-GFP(-1); assay: percent effect, decrease of GFP/mCherry ratio (-1 PRF reporter) relative to controls; higher = stronger frameshift inhibition; conditions: 10 µM; 24 h; HEK293T

Structure (SMILES) | percent effect [%]
O=C(NC[C@H]1CN(c2ccc(N3CCOCC3=O)cc2)C(=O)O1)c1ccc(Cl)s1 [rivaroxaban] | -3.2
C[C@H]1C[C@H]2[C@@H]3CCC4=CC(=O)C=C[C@]4(C)[C@H]3C(=O)C[C@]2(C)[C@@]1(O)C(=O)CO [meprednisone] | -0.479
COc1ccccc1OCCOCCOCCN1CCCCC1 [guaiapate] | -3.54
CC(C(=O)O)c1ccc(CC2CCCC2=O)cc1 (stereo not given) [loxoprofen] | -3.15
O=C(NCC1CCCCN1)c1cc(OCC(F)(F)F)ccc1OCC(F)(F)F (stereo not given) [flecainide] | -2.51
CC[C@@]12C=C(C(=O)OC)n3c4c(c5ccccc53)CCN(CCC1)[C@H]42 [apovincamine] | -0.893 ± 1.8
CC(=O)Nc1ccc(OC(=O)c2ccccc2O)cc1 [acetaminosalol] | -1.93
O=C1C(CC[S+]([O-])c2ccccc2)C(=O)N(c2ccccc2)N1c1ccccc1 (stereo not given) [sulfinpyrazone] | -4.95
CCC[C@@H]1C[C@@H](C(=O)N[C@@H]([C@H]2O[C@H](SC)[C@H](O)[C@@H](O)[C@H]2O)[C@H](C)Cl)N(C)C1 [Clindamycin] | -1.7
C[C@H](O)[C@H](O)[C@H]1CNc2nc(N)[nH]c(=O)c2N1 [Tetrahydrobiopterin] | 4.98
CCCCCCCCCCCCCCCC(=O)OC/C=C(C)/C=C/C=C(C)/C=C/C1=C(C)CCCC1(C)C | 0.614
NC(=O)NO [hydroxycarbamide] | -5.59
CC[C@H]1OC(=O)[C@H](C)[C@@H](O[C@H]2C[C@@](C)(OC)[C@@H](O)[C@H](C)O2)[C@H](C)[C@@H](O[C@@H]2O[C@H](C)C[C@H](N(C)C)[C@H]2O)[C@](C)(O)C[C@](C)(F)C(=O)[C@H](C)[C@@H](O)[C@]1(C)O [flurithromycin] | -7.83
O=C1[C@@H]2[C@H]3CC[C@H](C3)[C@@H]2C(=O)N1C[C@@H]1CCCC[C@H]1CN1CCN(c2nsc3ccccc23)CC1 [lurasidone] | 0.846
c1ccc(C(O[C@@H]2CCCN(CCc3ccc4c(c3)OCO4)C2)c2ccccc2)cc1 [zamifenacin] | -0.543
Cc1cc(C(=O)NNCc2ccccc2)no1 [isocarboxazid] | -3.17
CC1(C)O[C@@H]2C[C@H]3[C@@H]4C[C@H](F)C5=CC(=O)C=C[C@]5(C)[C@H]4[C@@H](O)C[C@]3(C)[C@]2(C(=O)CO)O1 | -3.99
C[C@](N)(Cc1ccc(O)c(O)c1)C(=O)O [Methyldopa] | -2.37

Structure (SMILES) | percent effect [%]
COC(=O)N/N=C/c1c[n+]([O-])c2ccccc2[n+]1[O-] | -0.873
CCCCCCCN(CC)CCCC(O)c1ccc(NS(C)(=O)=O)cc1 (stereo not given) [ibutilide] | -5.09
CC(=O)O[C@]1(C(C)=O)CC[C@H]2[C@@H]3C[C@H](C)C4=CC(=O)CC[C@]4(C)[C@H]3CC[C@@]21C | -10.1
COc1cc2c(cc1OC)-c1c/c(=N\c3c(C)cc(C)cc3C)n(C)c(=O)n1CC2 [Trequinsin·HCl] | -11.8
C=CCN1CCCC1CNC(=O)c1cc2nn[nH]c2cc1OC (stereo not given) [alizapride] | -1.9
C[C@@H]1C[C@H]2[C@@H]3C[C@H](F)C4=CC(=O)C=C[C@]4(C)[C@H]3[C@@H](O)C[C@]2(C)[C@H]1C(=O)CO [fluocortolone] | -3.26
CNCCc1ccccn1 [betahistine] | -6.74
COc1ccc(-c2nc(C(F)(F)F)sc2-c2ccc(OC)cc2)cc1 [itazigrel] | -4.89
CCOc1c(N2CCOCC2)cnn(C)c1=O [emorfazone] | 0.116
NC(=O)c1ccc([N+](=O)[O-])cc1Cl [aklomide] | 0.458
O=C1CC[C@@H](C(=O)Oc2ccc(O)cc2)N1 [pidobenzone] | -1.61
Cc1ccsc1/C=C/C1=NCCCN1C | 0.517
C[C@@H]1C[C@H]2[C@@H]3C[C@H](F)C4=CC(=O)C=C[C@]4(C)[C@@]3(F)[C@@H](O)C[C@]2(C)[C@@]1(O)C(=O)COC(=O)C(C)(C)C | -2.88
CCCCCC1C(=O)N2C=C(c3ccccc3)c3ccccc3N2C1=O (stereo not given) [cinnopentazone] | -7.29
CCC[C@H](N[C@@H](C)C(=O)N1[C@H](C(=O)O)C[C@@H]2CCCC[C@@H]21)C(=O)OCC | -0.978
COc1cc(C)c2c(Oc3cccc(C(F)(F)F)c3)c(OC)cc(NC(C)CCCN)c2n1 (stereo not given) [tafenoquine] | -15.8
CC(C)=CCC/C(C)=C/CC/C(C)=C/CSc1ccccc1C(=O)O [salirasib] | -0.961

Single values from the list.
percent effect [%], C=CCN1CCCC1CNC(=O)c1cc2nn[nH]c2cc1OC (stereo not given) [alizapride] is entered as -1.9
percent effect [%], CCCCCC1C(=O)N2C=C(c3ccccc3)c3ccccc3N2C1=O (stereo not given) [cinnopentazone] is entered as -7.29
